According to patent publication EP4722243A1:
No constants are given. Whether binding was seen depends on the method and setting. Some results given as binding are weak or reduced against the parent protein; the word gives no strength.

The chains behind the UniProt entries cited, without tags or fusion partners. Residues count along the entry.
UniProt P20809, residues 22-199: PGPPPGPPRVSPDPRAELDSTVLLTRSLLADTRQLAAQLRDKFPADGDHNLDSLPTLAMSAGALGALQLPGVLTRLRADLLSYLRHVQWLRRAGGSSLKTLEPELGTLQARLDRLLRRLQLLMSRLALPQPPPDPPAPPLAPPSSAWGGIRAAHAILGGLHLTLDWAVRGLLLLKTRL

biological target: human IL-11 (human) (UniProt P20809); experiment: phage gradient-dilution ELISA, IL-11 coated

Row | Binder | binding
1 | MA-III phage monoclonal antibody (phage-displayed single-chain antibody) (scFv, V domains shown) VH: EVKLEQSGAEVVKPGALVKMSCKASGYTFTSYWMHWVKQRPGQGLEWIGVIDPSDSYTTYNQKFKGKATLTVDTSSSTGYMQLSSLTSEDSAVYYCSQYGYDVNWYFDVWGAGTTVTVSS VL: DIVMTQTTLSLPVSLGDQASISCRSSQSIVHSNGNTYLEWYLQKPGQSPKLLIYEVSNRFSGVPDRFSGSGSGTDFTLKISRVEAEDLGVYYCFQGSHVPWTFGGGTKLEIK | binds
2 | MA-I phage monoclonal antibody (phage-displayed single-chain antibody) (scFv, V domains shown) VH: EVKLEESGGGLVKPGGSLKLSCAASGFTFSDYYMFWVRQTPEKRLEWVATISDGGTYTYYPDSVKGRFTISRDNAKNNLYLQMTSLKSEDTAMYYCARDGGYVSSPEAMDYWGQGTSVTVSS VL: DIVLTQSTSSLSASLGDRVTISCRASQDISNYLNWYQQKPDGTVKLLIYYTSRLHSGVPSRFSGSGSGTDYSLTISNLEQEDIATYFCQQGNTLPPTFGGGTKLEIK | binds
3 | MA-II phage monoclonal antibody (phage-displayed single-chain antibody) (scFv, V domains shown) VH: EVKLEESGGGLVKPGGSLKLSCAASGFTFSDYYMFWVRQTPEKRLEWVATISDGGTYTYYPDSVKGRFTISRDNAKNNLYLQMTSLKSEDTAMYYCARDGGYVSSPEAMDYWGQGTSVTVSS VL: DIVLTQSTSSLSASLGDRVTISCRASQDISNYLNWYQQKPDGTVKLLIYYTSRLHSGVPSRFSGSGSGTDYSLTISNLEQEDIATYFCQQGNTLPWTFGGGTKLEIK | binds
4 | MA-IV phage monoclonal antibody (phage-displayed single-chain antibody) (scFv, V domains shown) VH: EVQLEESGGGLVKPGGSLKLSCVASGFTFSDYYMFWVRQTPEKRLEWVATISDGGSYSYYPDSVKGRFTISRDNAKNNLYLQMSSLRSEDTAMYYCARDGGYISSPEAMDYWGQGTSVTVSS VL: DIVLTQSTSSLSASLGDRVTISCRASQDISNYLNWYQQKPDGTVKLLIYYTSRLHSGVPSRFSGSGSGTDYSLTISNLEQEDIATYFCQQGNTLPPTFGGGTKLEIK | binds
